From the supplement of paper PMC12823440, “Inhibitors supercharge kinase turnover through native proteolytic circuits” (Nature, 2025)
Structures can show the parent of a compound that is named as a salt. The list shows a part of the results. Hit calls seldom repeat between salt and free forms of one compound.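 Kinases, fused to nanoluciferase, were expressed in K562 cells; luminescence was measured every 4 h from 2 to 18 h as percent of control (DMSO = 100%, positive control = 0%). A time point is decreased if signal falls significantly (2 sigma). Hits were called by the authors by a rule that is not shown; the count of time points alone does not decide it.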

Protein sequences, listed by entry. Tags and fused reporters are not part of them. Lines headed by an entry give the natural chain unless they say otherwise; changes in a name come on top.
UniProt P50613: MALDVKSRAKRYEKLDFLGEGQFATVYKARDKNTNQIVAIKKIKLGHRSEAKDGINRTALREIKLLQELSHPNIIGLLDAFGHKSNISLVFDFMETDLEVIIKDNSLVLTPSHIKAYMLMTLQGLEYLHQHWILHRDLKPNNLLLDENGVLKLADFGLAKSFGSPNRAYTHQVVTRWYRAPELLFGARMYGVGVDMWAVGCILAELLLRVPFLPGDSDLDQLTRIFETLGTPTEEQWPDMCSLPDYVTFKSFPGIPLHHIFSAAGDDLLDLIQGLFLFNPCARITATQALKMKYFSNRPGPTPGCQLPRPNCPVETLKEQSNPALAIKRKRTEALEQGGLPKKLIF
UniProt P50750, whole entry: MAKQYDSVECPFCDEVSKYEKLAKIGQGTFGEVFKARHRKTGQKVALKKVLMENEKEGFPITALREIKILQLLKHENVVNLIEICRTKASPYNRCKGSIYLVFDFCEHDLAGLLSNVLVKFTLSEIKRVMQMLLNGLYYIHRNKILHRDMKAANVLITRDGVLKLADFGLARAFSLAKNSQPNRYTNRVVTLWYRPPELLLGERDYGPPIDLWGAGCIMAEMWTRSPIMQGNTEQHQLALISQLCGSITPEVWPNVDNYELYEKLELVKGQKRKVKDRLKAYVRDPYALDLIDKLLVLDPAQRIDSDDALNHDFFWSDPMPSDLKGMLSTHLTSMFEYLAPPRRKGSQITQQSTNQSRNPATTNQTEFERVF
UniProt P07333, whole entry: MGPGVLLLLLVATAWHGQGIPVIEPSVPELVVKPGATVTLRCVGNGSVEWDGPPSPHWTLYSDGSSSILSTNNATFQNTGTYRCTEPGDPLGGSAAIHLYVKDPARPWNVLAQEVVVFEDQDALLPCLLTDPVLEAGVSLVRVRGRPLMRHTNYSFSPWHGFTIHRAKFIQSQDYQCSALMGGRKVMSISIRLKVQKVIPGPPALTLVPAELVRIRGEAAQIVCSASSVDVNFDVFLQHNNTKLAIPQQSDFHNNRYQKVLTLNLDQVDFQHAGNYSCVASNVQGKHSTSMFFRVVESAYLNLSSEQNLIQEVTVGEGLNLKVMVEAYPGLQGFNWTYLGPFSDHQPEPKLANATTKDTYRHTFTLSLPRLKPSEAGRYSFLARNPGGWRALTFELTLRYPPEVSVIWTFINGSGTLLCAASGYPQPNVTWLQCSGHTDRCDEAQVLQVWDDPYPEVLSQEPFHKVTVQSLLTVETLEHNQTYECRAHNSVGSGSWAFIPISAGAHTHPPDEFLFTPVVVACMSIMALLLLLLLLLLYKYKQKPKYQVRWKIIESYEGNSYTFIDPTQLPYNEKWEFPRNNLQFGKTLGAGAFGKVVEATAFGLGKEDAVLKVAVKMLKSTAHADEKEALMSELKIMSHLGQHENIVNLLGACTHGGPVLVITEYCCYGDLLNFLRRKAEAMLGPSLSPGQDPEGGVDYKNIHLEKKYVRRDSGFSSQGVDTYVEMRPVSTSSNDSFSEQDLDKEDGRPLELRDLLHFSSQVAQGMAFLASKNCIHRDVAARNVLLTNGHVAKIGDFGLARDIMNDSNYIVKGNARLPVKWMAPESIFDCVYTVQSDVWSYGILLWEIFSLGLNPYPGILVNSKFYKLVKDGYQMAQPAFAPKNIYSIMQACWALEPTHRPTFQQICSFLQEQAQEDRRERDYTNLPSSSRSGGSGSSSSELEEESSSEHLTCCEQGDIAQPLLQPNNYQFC
UniProt P41240: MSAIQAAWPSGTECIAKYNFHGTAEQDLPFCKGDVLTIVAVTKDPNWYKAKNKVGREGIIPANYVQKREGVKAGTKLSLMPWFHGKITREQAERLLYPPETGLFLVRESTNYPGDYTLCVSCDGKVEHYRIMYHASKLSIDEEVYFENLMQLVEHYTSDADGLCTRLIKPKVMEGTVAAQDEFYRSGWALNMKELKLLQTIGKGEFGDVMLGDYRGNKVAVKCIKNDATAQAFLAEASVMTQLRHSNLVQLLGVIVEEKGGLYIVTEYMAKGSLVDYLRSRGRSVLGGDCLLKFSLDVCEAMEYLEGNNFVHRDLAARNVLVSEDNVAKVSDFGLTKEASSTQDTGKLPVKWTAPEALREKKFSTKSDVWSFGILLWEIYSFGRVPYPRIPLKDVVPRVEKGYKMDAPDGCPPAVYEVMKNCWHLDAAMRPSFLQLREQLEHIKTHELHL
UniProt P48729: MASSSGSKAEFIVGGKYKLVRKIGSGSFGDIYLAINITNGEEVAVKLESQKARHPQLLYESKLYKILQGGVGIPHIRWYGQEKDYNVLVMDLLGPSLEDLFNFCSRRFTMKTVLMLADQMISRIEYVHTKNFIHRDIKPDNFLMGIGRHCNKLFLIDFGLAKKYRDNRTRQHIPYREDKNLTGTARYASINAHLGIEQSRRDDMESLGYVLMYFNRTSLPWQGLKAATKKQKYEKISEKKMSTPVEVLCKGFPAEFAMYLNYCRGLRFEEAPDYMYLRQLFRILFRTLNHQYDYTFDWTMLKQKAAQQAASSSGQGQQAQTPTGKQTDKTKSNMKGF
UniProt Q08345: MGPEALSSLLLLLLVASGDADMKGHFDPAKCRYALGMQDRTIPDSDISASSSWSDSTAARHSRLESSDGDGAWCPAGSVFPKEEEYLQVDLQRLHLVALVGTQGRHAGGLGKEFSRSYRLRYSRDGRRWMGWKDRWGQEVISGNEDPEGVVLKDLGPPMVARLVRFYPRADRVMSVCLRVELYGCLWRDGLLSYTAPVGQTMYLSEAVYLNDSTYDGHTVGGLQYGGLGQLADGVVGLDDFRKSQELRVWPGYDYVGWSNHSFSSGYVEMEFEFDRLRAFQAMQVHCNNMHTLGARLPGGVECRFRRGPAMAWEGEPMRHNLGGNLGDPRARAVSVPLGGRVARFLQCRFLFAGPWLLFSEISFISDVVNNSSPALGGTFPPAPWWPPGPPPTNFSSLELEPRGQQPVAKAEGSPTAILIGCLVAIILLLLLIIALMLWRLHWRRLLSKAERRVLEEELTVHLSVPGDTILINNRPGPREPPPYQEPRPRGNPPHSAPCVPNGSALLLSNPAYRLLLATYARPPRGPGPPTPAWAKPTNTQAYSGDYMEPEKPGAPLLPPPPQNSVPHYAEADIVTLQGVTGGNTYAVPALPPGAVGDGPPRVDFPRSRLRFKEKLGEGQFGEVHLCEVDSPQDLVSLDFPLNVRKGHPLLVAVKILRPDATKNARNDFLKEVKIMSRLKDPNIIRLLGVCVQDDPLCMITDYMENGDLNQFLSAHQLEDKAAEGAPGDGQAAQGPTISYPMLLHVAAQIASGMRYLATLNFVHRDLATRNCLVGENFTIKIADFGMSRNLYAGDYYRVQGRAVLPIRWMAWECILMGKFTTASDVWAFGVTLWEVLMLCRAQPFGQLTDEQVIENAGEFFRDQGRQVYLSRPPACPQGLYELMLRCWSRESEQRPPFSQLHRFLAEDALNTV
UniProt Q9Y463, whole entry, looked up: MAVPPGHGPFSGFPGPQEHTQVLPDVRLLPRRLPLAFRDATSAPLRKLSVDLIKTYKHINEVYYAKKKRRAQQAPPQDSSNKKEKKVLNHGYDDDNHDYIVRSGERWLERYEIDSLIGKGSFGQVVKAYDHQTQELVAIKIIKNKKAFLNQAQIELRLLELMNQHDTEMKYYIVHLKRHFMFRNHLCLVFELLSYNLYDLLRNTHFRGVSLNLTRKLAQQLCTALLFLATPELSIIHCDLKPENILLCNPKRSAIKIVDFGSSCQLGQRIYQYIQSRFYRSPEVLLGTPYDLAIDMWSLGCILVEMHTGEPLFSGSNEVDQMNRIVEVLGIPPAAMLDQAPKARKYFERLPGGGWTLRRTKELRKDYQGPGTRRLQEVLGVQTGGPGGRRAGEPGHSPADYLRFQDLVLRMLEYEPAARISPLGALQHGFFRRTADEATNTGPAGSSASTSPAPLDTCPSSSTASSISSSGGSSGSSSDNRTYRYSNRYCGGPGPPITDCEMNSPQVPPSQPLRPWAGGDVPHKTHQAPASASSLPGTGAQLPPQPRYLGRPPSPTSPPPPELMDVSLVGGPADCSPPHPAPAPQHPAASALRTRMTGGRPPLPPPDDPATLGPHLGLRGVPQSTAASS
UniProt P29317, whole entry: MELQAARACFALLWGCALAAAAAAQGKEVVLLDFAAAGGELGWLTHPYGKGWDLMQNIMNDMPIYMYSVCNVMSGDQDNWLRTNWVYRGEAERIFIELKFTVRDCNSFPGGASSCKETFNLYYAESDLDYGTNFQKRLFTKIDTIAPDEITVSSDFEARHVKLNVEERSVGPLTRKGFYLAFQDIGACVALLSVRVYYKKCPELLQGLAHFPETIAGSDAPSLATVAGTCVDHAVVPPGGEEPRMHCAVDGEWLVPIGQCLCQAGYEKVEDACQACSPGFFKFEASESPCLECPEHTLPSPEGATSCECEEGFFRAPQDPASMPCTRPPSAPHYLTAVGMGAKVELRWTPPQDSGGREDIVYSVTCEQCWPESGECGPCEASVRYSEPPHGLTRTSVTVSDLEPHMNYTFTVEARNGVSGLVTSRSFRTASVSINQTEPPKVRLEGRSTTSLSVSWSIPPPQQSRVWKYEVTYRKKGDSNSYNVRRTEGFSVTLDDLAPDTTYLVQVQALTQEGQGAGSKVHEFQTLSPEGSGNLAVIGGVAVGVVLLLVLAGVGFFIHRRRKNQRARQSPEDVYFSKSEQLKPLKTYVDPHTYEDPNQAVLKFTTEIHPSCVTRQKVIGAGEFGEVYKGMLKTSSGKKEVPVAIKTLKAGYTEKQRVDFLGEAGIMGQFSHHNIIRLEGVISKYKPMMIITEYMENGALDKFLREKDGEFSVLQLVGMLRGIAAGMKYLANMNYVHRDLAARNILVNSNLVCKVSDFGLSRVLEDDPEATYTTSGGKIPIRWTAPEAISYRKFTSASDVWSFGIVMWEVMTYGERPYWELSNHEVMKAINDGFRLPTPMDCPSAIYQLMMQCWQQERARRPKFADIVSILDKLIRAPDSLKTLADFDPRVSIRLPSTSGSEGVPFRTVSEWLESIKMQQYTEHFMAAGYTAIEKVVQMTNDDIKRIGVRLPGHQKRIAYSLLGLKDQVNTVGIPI
UniProt Q15303, whole entry R711C: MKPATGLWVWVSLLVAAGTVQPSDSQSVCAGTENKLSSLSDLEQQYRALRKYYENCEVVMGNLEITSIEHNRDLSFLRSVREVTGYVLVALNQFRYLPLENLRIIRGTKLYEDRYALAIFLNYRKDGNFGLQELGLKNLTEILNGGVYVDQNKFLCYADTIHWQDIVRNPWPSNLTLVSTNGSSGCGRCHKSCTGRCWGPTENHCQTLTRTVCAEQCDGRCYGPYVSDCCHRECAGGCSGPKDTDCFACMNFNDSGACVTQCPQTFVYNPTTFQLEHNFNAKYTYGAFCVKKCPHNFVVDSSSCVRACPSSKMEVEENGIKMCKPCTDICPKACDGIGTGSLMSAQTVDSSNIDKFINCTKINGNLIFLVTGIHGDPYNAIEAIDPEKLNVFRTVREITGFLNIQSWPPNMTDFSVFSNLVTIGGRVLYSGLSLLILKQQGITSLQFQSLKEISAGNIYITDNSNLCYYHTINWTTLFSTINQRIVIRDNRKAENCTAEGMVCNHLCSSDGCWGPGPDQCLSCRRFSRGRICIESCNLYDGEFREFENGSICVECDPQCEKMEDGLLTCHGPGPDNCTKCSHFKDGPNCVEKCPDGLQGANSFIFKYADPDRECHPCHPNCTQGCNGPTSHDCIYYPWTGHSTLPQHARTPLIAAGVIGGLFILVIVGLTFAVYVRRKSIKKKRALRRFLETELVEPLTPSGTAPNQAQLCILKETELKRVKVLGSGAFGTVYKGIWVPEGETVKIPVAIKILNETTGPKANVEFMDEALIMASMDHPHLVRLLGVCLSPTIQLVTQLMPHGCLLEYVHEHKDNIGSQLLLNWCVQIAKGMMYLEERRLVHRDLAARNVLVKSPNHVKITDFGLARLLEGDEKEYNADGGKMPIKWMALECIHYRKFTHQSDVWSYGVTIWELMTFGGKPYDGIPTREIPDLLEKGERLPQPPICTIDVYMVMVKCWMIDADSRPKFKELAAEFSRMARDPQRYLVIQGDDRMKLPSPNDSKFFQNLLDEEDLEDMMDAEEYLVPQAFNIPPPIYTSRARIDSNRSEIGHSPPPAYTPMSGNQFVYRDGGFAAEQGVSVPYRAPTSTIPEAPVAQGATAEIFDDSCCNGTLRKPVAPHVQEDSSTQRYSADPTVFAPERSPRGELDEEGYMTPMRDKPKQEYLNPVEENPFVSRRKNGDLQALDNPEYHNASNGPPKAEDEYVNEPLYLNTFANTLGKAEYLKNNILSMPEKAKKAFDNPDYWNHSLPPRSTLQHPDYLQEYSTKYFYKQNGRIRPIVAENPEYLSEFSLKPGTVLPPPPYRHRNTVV

What was measured:
Test in all cases: kinase-Nluc reporter destabilization hit call (1 = scored as downregulated) (binary); higher = compound decreases kinase abundance
Settings in all cases: K562; 2-18 h
CDK7 = CDK7 (UniProt P50613)
CDK9 = CDK9 (UniProt P50750)
CHEK2 = CHEK2 (UniProt O96017)
CSF1R = CSF1R (UniProt P07333)
CSK = CSK (UniProt P41240)
CSNK1A1 = CSNK1A1 (UniProt P48729)
CSNK1D = CSNK1D (UniProt P48730)
DDR1 = DDR1 (UniProt Q08345)
DYRK1B = DYRK1B (UniProt Q9Y463)
DYRK2 = DYRK2 (UniProt Q92630)
EGFR = EGFR (UniProt P00533)
EGFR_G719S = EGFR_G719S (UniProt P00533)
EGFR_G719S_T790M = EGFR_G719S_T790M (UniProt P00533)
EGFR_L718V = EGFR_L718V (UniProt P00533)
EGFR_L858R = EGFR_L858R (UniProt P00533)
EGFR_L861Q = EGFR_L861Q (UniProt P00533)
EGFR_T790M = EGFR_T790M (UniProt P00533)
EPHA2 = EPHA2 (UniProt P29317)
ERBB3 = ERBB3 (UniProt P21860)
[1] = biological target: ERBB4_R711C (clone: ERBB4_mut) (UniProt Q15303)

Measured: kinase-Nluc reporter destabilization hit call

C=CC(=O)N[C@H]1C=C(C)c2c(-c3cnc4ccccc4c3)c3c(N)ncnc3n2C1 (10 µM)
inactive: CDK7 = 0 | CDK9 = 0 | CHEK2 = 0 | CSF1R 0 | CSK 0 | CSNK1A1 = 0 | CSNK1D 0 | DDR1 = 0 | DYRK1B 0 | DYRK2 = 0 | EGFR 0 | EGFR_G719S 0 | EGFR_G719S_T790M 0 | EGFR_L718V 0 | EGFR_L858R 0 | EGFR_L861Q 0 | EGFR_T790M 0 | EPHA2 = 0 | ERBB3 = 0 | [1] 0

O=C1c2ccccc2C(=O)c2c1cccc2-c1cnn(C2CCNCC2)c1 [PDK4-IN-1 (hydrochloride)] (10 µM)
inactive: CDK7 = 0 | CDK9 = 0 | CHEK2 = 0 | CSF1R 0 | CSK 0 | CSNK1A1 = 0 | CSNK1D 0 | DDR1 = 0 | DYRK1B 0 | DYRK2 = 0 | EGFR 0 | EGFR_G719S 0 | EGFR_G719S_T790M 0 | EGFR_L718V 0 | EGFR_L858R 0 | EGFR_L861Q 0 | EGFR_T790M 0 | EPHA2 = 0 | ERBB3 = 0 | [1] 0

O=C(/C=C/c1ccccc1)OC[C@H]1O[C@@H](O[C@@H]2OC=C[C@H]3[C@H](O)[C@@H]4O[C@]4(CO)[C@@H]23)[C@H](O)[C@@H](O)[C@@H]1O [Picroside I] (10 µM)
inactive: CDK7 = 0 | CDK9 = 0 | CHEK2 = 0 | CSF1R 0 | CSK 0 | CSNK1A1 = 0 | CSNK1D 0 | DDR1 = 0 | DYRK1B 0 | DYRK2 = 0 | EGFR 0 | EGFR_G719S 0 | EGFR_G719S_T790M 0 | EGFR_L718V 0 | EGFR_L858R 0 | EGFR_L861Q 0 | EGFR_T790M 0 | EPHA2 = 0 | ERBB3 = 0 | [1] 0

O=Cc1cn(Cc2ccc(Cl)cc2)c2ccccc12 [Oncrasin-1] (10 µM)
inactive: CDK7 = 0 | CDK9 = 0 | CHEK2 = 0 | CSF1R 0 | CSK 0 | CSNK1A1 = 0 | CSNK1D 0 | DDR1 = 0 | DYRK1B 0 | DYRK2 = 0 | EGFR 0 | EGFR_G719S 0 | EGFR_G719S_T790M 0 | EGFR_L718V 0 | EGFR_L858R 0 | EGFR_L861Q 0 | EGFR_T790M 0 | EPHA2 = 0 | ERBB3 = 0 | [1] 0

CCOC(=O)c1c(/C(C#N)=C\N)c2ccc(Cl)c(Cl)c2n1C (10 µM)
inactive: CDK7 = 0 | CDK9 = 0 | CHEK2 = 0 | CSF1R 0 | CSK 0 | CSNK1A1 = 0 | CSNK1D 0 | DDR1 = 0 | DYRK1B 0 | DYRK2 = 0 | EGFR 0 | EGFR_G719S 0 | EGFR_G719S_T790M 0 | EGFR_L718V 0 | EGFR_L858R 0 | EGFR_L861Q 0 | EGFR_T790M 0 | EPHA2 = 0 | ERBB3 = 0 | [1] 0

CC1C(=O)OC2C(O)C34C5OC(=O)C3(OC3OC(=O)C(O)C34C(C(C)(C)C)C5O)C12O (stereo not given) [Ginkgolide C] (10 µM)
inactive: CDK7 = 0 | CDK9 = 0 | CHEK2 = 0 | CSF1R 0 | CSK 0 | CSNK1A1 = 0 | CSNK1D 0 | DDR1 = 0 | DYRK1B 0 | DYRK2 = 0 | EGFR 0 | EGFR_G719S 0 | EGFR_G719S_T790M 0 | EGFR_L718V 0 | EGFR_L858R 0 | EGFR_L861Q 0 | EGFR_T790M 0 | EPHA2 = 0 | ERBB3 = 0 | [1] 0

CC(C)(C)c1cc(C=C(C#N)C#N)cc(Br)c1O (2.5 µM)
inactive: CDK7 = 0 | CDK9 = 0 | CHEK2 = 0 | CSF1R 0 | CSK 0 | CSNK1A1 = 0 | CSNK1D 0 | DDR1 = 0 | DYRK1B 0 | DYRK2 = 0 | EGFR 0 | EGFR_G719S 0 | EGFR_G719S_T790M 0 | EGFR_L718V 0 | EGFR_L858R 0 | EGFR_L861Q 0 | EGFR_T790M 0 | EPHA2 = 0 | ERBB3 = 0 | [1] 0

C/C=C(/C)C(=O)O[C@H]1[C@@H]2[C@H](C)C(=O)O[C@@H]2C[C@@H](C)[C@@H]2C=CC(=O)[C@]21C [Brevilin A] (2.5 µM)
inactive: CDK7 = 0 | CDK9 = 0 | CHEK2 = 0 | CSF1R 0 | CSK 0 | CSNK1A1 = 0 | CSNK1D 0 | DDR1 = 0 | DYRK1B 0 | DYRK2 = 0 | EGFR 0 | EGFR_G719S 0 | EGFR_G719S_T790M 0 | EGFR_L718V 0 | EGFR_L858R 0 | EGFR_L861Q 0 | EGFR_T790M 0 | EPHA2 = 0 | ERBB3 = 0 | [1] 0

COc1ccc(N(C(=O)Oc2c(C)cccc2C)c2ccnc(Nc3ccc(N4CCN(C)CC4)cc3)n2)c(OC)c1 (2.5 µM)
inactive: CDK7 = 0 | CDK9 = 0 | CHEK2 = 0 | CSF1R 0 | CSK 0 | CSNK1A1 = 0 | CSNK1D 0 | DDR1 = 0 | DYRK1B 0 | DYRK2 = 0 | EGFR 0 | EGFR_G719S 0 | EGFR_G719S_T790M 0 | EGFR_L718V 0 | EGFR_L858R 0 | EGFR_L861Q 0 | EGFR_T790M 0 | EPHA2 = 0 | ERBB3 = 0 | [1] 0

Cc1n[nH]cc1-c1cc2nc([C@@H]3CC4CCN3CC4)[nH]c(=O)c2s1 [Simurosertib] (2.5 µM)
inactive: CDK7 = 0 | CDK9 = 0 | CHEK2 = 0 | CSF1R 0 | CSK 0 | CSNK1A1 = 0 | CSNK1D 0 | DDR1 = 0 | DYRK1B 0 | DYRK2 = 0 | EGFR 0 | EGFR_G719S 0 | EGFR_G719S_T790M 0 | EGFR_L718V 0 | EGFR_L858R 0 | EGFR_L861Q 0 | EGFR_T790M 0 | EPHA2 = 0 | ERBB3 = 0 | [1] 0

CC(=O)OC(C)(C)/C=C/C(=O)[C@](C)(O)[C@H]1[C@H](O)C[C@@]2(C)[C@@H]3CC=C4[C@@H](C=C(O)C(=O)C4(C)C)[C@]3(C)C(=O)C[C@]12C [Cucurbitacin E] (2.5 µM)
inactive: CDK7 = 0 | CDK9 = 0 | CHEK2 = 0 | CSF1R 0 | CSK 0 | CSNK1A1 = 0 | CSNK1D 0 | DDR1 = 0 | DYRK1B 0 | DYRK2 = 0 | EGFR 0 | EGFR_G719S 0 | EGFR_G719S_T790M 0 | EGFR_L718V 0 | EGFR_L858R 0 | EGFR_L861Q 0 | EGFR_T790M 0 | EPHA2 = 0 | ERBB3 = 0 | [1] 0

O=c1[nH]c2ccccc2n1C1CCN(Cc2ccc(-c3[nH]c4cc5ncnc5cc4nc3-c3ccccc3)cc2)CC1 [AKT inhibitor VIII] (2.5 µM)
inactive: CDK7 = 0 | CDK9 = 0 | CHEK2 = 0 | CSF1R 0 | CSK 0 | CSNK1A1 = 0 | CSNK1D 0 | DDR1 = 0 | DYRK1B 0 | DYRK2 = 0 | EGFR 0 | EGFR_G719S 0 | EGFR_G719S_T790M 0 | EGFR_L718V 0 | EGFR_L858R 0 | EGFR_L861Q 0 | EGFR_T790M 0 | EPHA2 = 0 | ERBB3 = 0 | [1] 0

CCN1CCN(C(=O)Cc2ccc(Nc3ncc(F)c(Nc4ccc(C(=O)Nc5ccccc5Cl)cc4)n3)cc2)CC1 (2.5 µM)
inactive: CDK7 = 0 | CDK9 = 0 | CHEK2 = 0 | CSF1R 0 | CSK 0 | CSNK1A1 = 0 | CSNK1D 0 | DDR1 = 0 | DYRK1B 0 | DYRK2 = 0 | EGFR 0 | EGFR_G719S 0 | EGFR_G719S_T790M 0 | EGFR_L718V 0 | EGFR_L858R 0 | EGFR_L861Q 0 | EGFR_T790M 0 | EPHA2 = 0 | ERBB3 = 0 | [1] 0

NCCc1cn(S(=O)(=O)c2c(Cl)nc3sccn23)c2ccccc12 (10 µM)
inactive: CDK7 = 0 | CDK9 = 0 | CHEK2 = 0 | CSF1R 0 | CSK 0 | CSNK1A1 = 0 | CSNK1D 0 | DDR1 = 0 | DYRK1B 0 | DYRK2 = 0 | EGFR 0 | EGFR_G719S 0 | EGFR_G719S_T790M 0 | EGFR_L718V 0 | EGFR_L858R 0 | EGFR_L861Q 0 | EGFR_T790M 0 | EPHA2 = 0 | ERBB3 = 0 | [1] 0

COC[C@H]1OC(=O)c2coc3c2[C@@]1(C)C1=C(C3=O)[C@@H]2CCC(=O)[C@@]2(C)C[C@H]1OC(C)=O [Wortmannin] (2.5 µM)
inactive: CDK7 = 0 | CDK9 = 0 | CHEK2 = 0 | CSF1R 0 | CSK 0 | CSNK1A1 = 0 | CSNK1D 0 | DDR1 = 0 | DYRK1B 0 | DYRK2 = 0 | EGFR 0 | EGFR_G719S 0 | EGFR_G719S_T790M 0 | EGFR_L718V 0 | EGFR_L858R 0 | EGFR_L861Q 0 | EGFR_T790M 0 | EPHA2 = 0 | ERBB3 = 0 | [1] 0

C[C@H]1CC[C@]2(NC1)O[C@H]1C[C@H]3[C@@H]4CC[C@H]5C[C@@H](O)CC[C@]5(C)[C@H]4CC[C@]3(C)[C@H]1[C@@H]2C [Tomatidine (hydrochloride)] (10 µM)
inactive: CDK7 = 0 | CDK9 = 0 | CHEK2 = 0 | CSF1R 0 | CSK 0 | CSNK1A1 = 0 | CSNK1D 0 | DDR1 = 0 | DYRK1B 0 | DYRK2 = 0 | EGFR 0 | EGFR_G719S 0 | EGFR_G719S_T790M 0 | EGFR_L718V 0 | EGFR_L858R 0 | EGFR_L861Q 0 | EGFR_T790M 0 | EPHA2 = 0 | ERBB3 = 0 | [1] 0

Cc1[nH]ncc1-c1cc2nc([C@H]3CC4CCN3CC4)[nH]c(=O)c2s1 [(R)-Simurosertib] (10 µM)
inactive: CDK7 = 0 | CDK9 = 0 | CHEK2 = 0 | CSF1R 0 | CSK 0 | CSNK1A1 = 0 | CSNK1D 0 | DDR1 = 0 | DYRK1B 0 | DYRK2 = 0 | EGFR 0 | EGFR_G719S 0 | EGFR_G719S_T790M 0 | EGFR_L718V 0 | EGFR_L858R 0 | EGFR_L861Q 0 | EGFR_T790M 0 | EPHA2 = 0 | ERBB3 = 0 | [1] 0

Two entries picked at random from the list so far:
NCCc1cn(S(=O)(=O)c2c(Cl)nc3sccn23)c2ccccc12 (10 µM)
inactive: CDK7 = 0 | CDK9 = 0 | CHEK2 = 0 | CSF1R 0 | CSK 0 | CSNK1A1 = 0 | CSNK1D 0 | DDR1 = 0 | DYRK1B 0 | DYRK2 = 0 | EGFR 0 | EGFR_G719S 0 | EGFR_G719S_T790M 0 | EGFR_L718V 0 | EGFR_L858R 0 | EGFR_L861Q 0 | EGFR_T790M 0 | EPHA2 = 0 | ERBB3 = 0 | [1] 0

Cc1[nH]ncc1-c1cc2nc([C@H]3CC4CCN3CC4)[nH]c(=O)c2s1 [(R)-Simurosertib] (10 µM)
inactive: CDK7 = 0 | CDK9 = 0 | CHEK2 = 0 | CSF1R 0 | CSK 0 | CSNK1A1 = 0 | CSNK1D 0 | DDR1 = 0 | DYRK1B 0 | DYRK2 = 0 | EGFR 0 | EGFR_G719S 0 | EGFR_G719S_T790M 0 | EGFR_L718V 0 | EGFR_L858R 0 | EGFR_L861Q 0 | EGFR_T790M 0 | EPHA2 = 0 | ERBB3 = 0 | [1] 0

Further results follow.

C[C@H]1CC[C@]2(NC1)O[C@H]1C[C@H]3[C@@H]4CC[C@H]5C[C@@H](O)CC[C@]5(C)[C@H]4CC[C@]3(C)[C@H]1[C@@H]2C [Tomatidine] (2 µM)
inactive: CDK7 = 0 | CDK9 = 0 | CHEK2 = 0 | CSF1R 0 | CSK 0 | CSNK1A1 = 0 | CSNK1D 0 | DDR1 = 0 | DYRK1B 0 | DYRK2 = 0 | EGFR 0 | EGFR_G719S 0 | EGFR_G719S_T790M 0 | EGFR_L718V 0 | EGFR_L858R 0 | EGFR_L861Q 0 | EGFR_T790M 0 | EPHA2 = 0 | ERBB3 = 0 | [1] 0
